# The list shows a part of the results, in another mix than the full data.
# Compound: COC(=O)C#Cc1ccccc1 [methyl 3-phenylpropiolate]
# Assay: log2 ratio of iodoacetamide-alkyne labeling of the cysteine site, DMSO over compound (competition); higher = stronger covalent engagement of the cysteine by the compound, active = 1 or more
# Settings: 500 µM; treatment time 1 h; system: HEK293T cell lysate
# In short: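 HEK293T lysate at 2 mg/mL was treated with vehicle or electrophile (500 µM) for 1 h at ambient temperature, then labelled with iodoacetamide alkyne (1 h), clicked to sCIP-TMT reagents, pooled, digested with trypsin overnight at 37 °C, enriched on streptavidin and eluted with acid. Peptides were analysed by Orbitrap Eclipse LC-MS/MS with FAIMS and quantified in FragPipe, using duplicate channels and three replicates, with cysteines quantified in only one replicate excluded. The log2 competition ratio for each cysteine is the mean control-channel reporter intensity divided by the mean compound-channel reporter intensity.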
row,Target,log2 ratio of iodoacetamide-alkyne labeling
1,UniProt P25398_C50,inactive: 0.158
2,TCP1 C385 (UniProt P17987),inactive: 0.135
3,TKT C225 (UniProt P29401),inactive: -0.0938
4,CAST C241 (UniProt P20810),inactive: 0.334
5,HK1 C813 (UniProt P19367),inactive: 0.174
6,ME2 C120 (UniProt P23368),inactive: -0.0679
7,ECHS1 C62 (UniProt P30084),inactive: 0.0975
8,PEBP1 C133 (UniProt P30086),inactive: 0.0655
9,UniProt P22413_C807,inactive: 0.133
10,FLNA C796 (UniProt P21333),inactive: -0.159
11,TCP1 C147 (UniProt P17987),inactive: 0.482
12,UniProt P25705_C244,inactive: 0.205
13,RCC1 C198 (UniProt P18754),inactive: 0.217
14,MSN C284 (UniProt P26038),inactive: -0.16
15,RPL10 C71 (UniProt P27635),inactive: 0.561
16,RPS3 C97 (UniProt P23396),active: 2.45
17,POLD1 C713 (UniProt P28340),inactive: -0.0841
18,TEAD1 C53 (UniProt P28347),inactive: 0.216
19,PAICS C63 (UniProt P22234),inactive: 0.0152

row,Target,log2 ratio of iodoacetamide-alkyne labeling
1,PSMA1 C156 (UniProt P25786),inactive: 0.136
2,COMT C238 (UniProt P21964),inactive: 0.176
3,UniProt P23610_C62,inactive: 0.0767
4,NDUFS1 C226 (UniProt P28331),inactive: -0.0202
5,GLDC C795 (UniProt P23378),inactive: 0.153
6,AHCY C195 (UniProt P23526),inactive: 0.142
7,APEX1 C310 (UniProt P27695),inactive: -0.035
8,VARS C112 (UniProt P26640),inactive: 0.0679
9,FLNA C649 (UniProt P21333),inactive: -0.00436
10,DDX5 C234 (UniProt P17844),inactive: 0.00685
11,LAP3 C445 (UniProt P28838),inactive: 0.00649
12,UniProt P25398_C92,inactive: 0.587
13,HNRNPA2B1 C50 (UniProt P22626),inactive: -0.0591
14,WARS C62 (UniProt P23381),inactive: -0.0517
15,APEX1 C208 (UniProt P27695),inactive: -0.225
16,MCM3 C319 (UniProt P25205),inactive: -0.032
17,FLNA C623 (UniProt P21333),inactive: -0.0395
18,TUBG1 C138 (UniProt P23258),inactive: 0.161
19,RPL7 C186 (UniProt P18124),inactive: 0.0839

# Part of the list above, set out differently:
row | Target | log2 ratio of iodoacetamide-alkyne labeling
13 | HNRNPA2B1 C50 (UniProt P22626) | inactive: -0.0591
14 | WARS C62 (UniProt P23381) | inactive: -0.0517
